Experiment: in vitro
Conditions: mouse

`COc1cc2c(cc1OC)C(=O)C(CC1CCN(Cc3ccccc3)CC1)C2` (stereo unspecified) [DONEPEZIL] showed a Papp at 2 h, 20 µM of 8.9 ×10⁻⁶ cm/s.

Source: ChEMBL document CHEMBL5550168, “Structure-based design of multitargeting ChEs-MAO B inhibitors based on phenyl ring bioisosteres: AChE/BChE selectivity switch and drug-like characterization” (Eur J Med Chem, 2024)
